From paper PMC7862700 come the findings set out here.

This is a selection; strong and weak results do not stand in their true shares. At the low end of the ranking the order means little.

What all share (experiment): DAPPL (digital affinity profiling via proximity ligation, sequencing)
Common to all, as to details: 10 mM Tris-HCl pH 7.5, 50 mM NaCl, 1 mM DTT, 4% glycerol, room temperature, 30 min; GST-TFs on glutathione beads, 16-mer random dsDNA library, 0.1% …; high values mean tight binding; double strand, one strand shown; scale: fold enrichment (6-mer frequency, TF over GST control)

One experiment deals with T1, ELK1 (UniProt P19419).
T1 sequence: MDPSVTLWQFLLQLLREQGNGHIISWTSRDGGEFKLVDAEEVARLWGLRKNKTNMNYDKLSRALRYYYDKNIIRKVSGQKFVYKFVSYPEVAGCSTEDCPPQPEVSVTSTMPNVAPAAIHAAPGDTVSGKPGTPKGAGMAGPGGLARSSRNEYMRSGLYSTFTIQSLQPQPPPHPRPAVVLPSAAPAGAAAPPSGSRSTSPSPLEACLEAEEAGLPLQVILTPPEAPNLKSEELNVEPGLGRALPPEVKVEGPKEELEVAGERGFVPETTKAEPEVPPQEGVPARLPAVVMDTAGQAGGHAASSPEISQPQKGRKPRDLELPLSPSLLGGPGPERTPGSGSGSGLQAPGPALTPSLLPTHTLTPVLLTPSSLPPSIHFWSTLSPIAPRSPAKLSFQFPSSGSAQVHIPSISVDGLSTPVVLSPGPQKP

A further experiment concerns the target T2, ELK3 (UniProt P41970).
T2 sequence: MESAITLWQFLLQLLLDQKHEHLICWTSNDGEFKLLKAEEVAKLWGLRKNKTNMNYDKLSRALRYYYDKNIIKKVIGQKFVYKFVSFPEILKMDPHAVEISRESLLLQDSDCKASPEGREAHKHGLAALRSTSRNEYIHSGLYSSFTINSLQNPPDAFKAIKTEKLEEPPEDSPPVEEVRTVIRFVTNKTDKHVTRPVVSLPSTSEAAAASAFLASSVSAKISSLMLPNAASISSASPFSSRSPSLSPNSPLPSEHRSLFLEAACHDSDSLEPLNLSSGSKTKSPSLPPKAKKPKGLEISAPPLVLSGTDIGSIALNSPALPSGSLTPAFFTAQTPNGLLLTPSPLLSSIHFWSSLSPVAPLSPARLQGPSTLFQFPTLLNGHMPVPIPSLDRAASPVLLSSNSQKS

The target of the next experiment is T3, SPIC (UniProt Q8N5J4).
T3 sequence: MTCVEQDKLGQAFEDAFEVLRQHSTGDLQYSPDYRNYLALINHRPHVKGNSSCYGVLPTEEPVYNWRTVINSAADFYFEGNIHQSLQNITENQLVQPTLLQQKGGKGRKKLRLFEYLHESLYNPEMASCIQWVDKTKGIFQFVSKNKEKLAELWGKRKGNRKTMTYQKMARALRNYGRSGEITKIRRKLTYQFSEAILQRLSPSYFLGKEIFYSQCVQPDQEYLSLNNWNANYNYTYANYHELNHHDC

Another experiment deals with T4, ETS2 (UniProt P15036).
T4 sequence: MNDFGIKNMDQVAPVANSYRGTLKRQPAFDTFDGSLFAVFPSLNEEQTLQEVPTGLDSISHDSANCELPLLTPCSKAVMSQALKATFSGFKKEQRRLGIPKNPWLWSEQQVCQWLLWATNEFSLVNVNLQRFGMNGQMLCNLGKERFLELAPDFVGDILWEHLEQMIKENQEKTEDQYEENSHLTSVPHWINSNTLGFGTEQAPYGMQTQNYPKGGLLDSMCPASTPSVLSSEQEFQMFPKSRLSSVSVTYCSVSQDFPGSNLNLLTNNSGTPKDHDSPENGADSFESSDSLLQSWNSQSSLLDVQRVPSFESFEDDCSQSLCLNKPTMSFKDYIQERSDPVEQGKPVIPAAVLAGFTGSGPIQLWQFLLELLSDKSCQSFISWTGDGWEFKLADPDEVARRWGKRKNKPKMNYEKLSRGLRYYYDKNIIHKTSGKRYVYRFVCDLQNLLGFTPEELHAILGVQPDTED

For a further experiment, the target named is T5, ETV3 (UniProt P41162-2).
T5 sequence: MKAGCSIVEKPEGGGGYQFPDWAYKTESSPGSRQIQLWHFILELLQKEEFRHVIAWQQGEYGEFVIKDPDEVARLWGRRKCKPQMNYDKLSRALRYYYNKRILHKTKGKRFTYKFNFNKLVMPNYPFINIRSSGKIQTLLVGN

CGGTGC: the binding signal with ELK1 was determined as 0.666; in the experiment with ELK3, 0.627; with SPIC, 0.579; with ETS2 it was 0.721; with ETV3, 0.731.
On the same counts, the results for GGAGAG are 0.284, 0.275, 0.282, 0.264 and 0.275.
In the same order, the values of GGCCGT are 0.392, 0.404, 0.322, 0.402 and 0.403.
On the same counts, the results for CCAGGC are 0.439, 0.449, 0.438, 0.447 and 0.439.
ATTGGA: the binding signal with ELK1 stood at 0.863; with ELK3, 0.911; in the experiment with SPIC, 0.945; with ETS2 it was 0.85; in the experiment with ETV3 it was 0.854.
On the same counts, the results for CAGTCA are 0.474, 0.488, 0.426, 0.497 and 0.492.
In the same order, the values of GCGTAA are 0.859, 0.803, 0.808, 0.851 and 0.845.
Take CTGAGT: the binding signal with ELK1 was 0.589; with ELK3, 0.543; with SPIC, 0.646; with ETS2, 0.582; with ETV3 it was 0.664.
In the same order, the values of GTAAAG are 0.934, 0.997, 0.911, 0.951 and 0.947.
For the sequence GACGCC, the binding signal in the experiment with ELK1 was 0.82; in the experiment with ELK3, 0.857; with SPIC it was 0.876; with ETS2 it was 0.801; with ETV3, 0.768.
Regarding CGAGCC, the binding signal in the experiment with ELK1 was 0.876; with ELK3, 0.84; with SPIC, 0.799; with ETS2 it was 0.819; with ETV3, 0.916.
On to GATCGG, for which the binding signal came out at 0.474 in the experiment with ELK1; 0.513 with ELK3; 0.525 with SPIC; 0.469 with ETS2; 0.5 with ETV3.
On the same counts, the results for GGTAGT are 0.725, 0.697, 0.799, 0.734 and 0.748.
On the same counts, the results for AAGCGT are 0.791, 0.92, 0.895, 0.888 and 0.837.
For the sequence GGTACG, the binding signal with ELK1 is 0.851; with ELK3, 0.782; with SPIC, 0.965; with ETS2 it was 0.847; with ETV3 it was 0.795.
Consider GCGTCG, for which the binding signal was 0.837 with ELK1; 0.837 in the experiment with ELK3; 0.842 with SPIC; 0.767 with ETS2; 0.769 with ETV3.
Consider TGCCAG, for which the binding signal came to 0.638 with ELK1; 0.617 with ELK3; 0.675 with SPIC; 0.685 with ETS2; 0.678 in the experiment with ETV3.
On the same counts, the results for GGCACG are 0.833, 0.882, 0.806, 0.786 and 0.846.
In the same order, the values of GAACCG are 0.747, 0.692, 0.703, 0.764 and 0.743.
With GCGTGC, the binding signal with ELK1 turned out to be 0.849; with ELK3 it was 0.649; in the experiment with SPIC it was 0.883; in the experiment with ETS2, 0.768; in the experiment with ETV3, 0.822.
For TGTAGG, the binding signal with ELK1 came to 0.776; with ELK3, 0.756; with SPIC, 0.871; with ETS2, 0.779; in the experiment with ETV3 it was 0.811.
In the same order, the values of TGTCGG are 0.344, 0.318, 0.391, 0.362 and 0.341.
On the same counts, the results for AGTGTG are 0.64, 0.641, 0.767, 0.692 and 0.665.
On the same counts, the results for TGACGT are 0.977, 0.959, 0.831, 0.852 and 0.78.
For GAGCGT, the binding signal with ELK1 stood at 0.363; in the experiment with ELK3 it was 0.361; with SPIC, 0.312; with ETS2, 0.319; with ETV3, 0.346.
On the same counts, the results for TGACAG are 0.943, 0.934, 0.809, 0.894 and 0.915.
On the same counts, the results for ACGGTC are 0.764, 0.762, 0.745, 0.792 and 0.679.
In the same order, the values of GAGGCG are 0.397, 0.365, 0.474, 0.429 and 0.376.
For the sequence GCCGTG, the binding signal was found to be 0.233 in the experiment with ELK1; 0.229 with ELK3; 0.202 in the experiment with SPIC; 0.238 with ETS2; 0.267 with ETV3.
In the same order, the values of TTGAGT are 0.759, 0.641, 0.721, 0.675 and 0.73.
On the same counts, the results for GAAGGG are 0.789, 0.837, 0.777, 0.935 and 0.857.
Consider TGTGAA, for which the binding signal is 0.848 with ELK1; 0.786 with ELK3; 0.713 with SPIC; 0.844 with ETS2; 0.78 with ETV3.
On the same counts, the results for GGGTCT are 0.921, 0.859, 0.969, 0.967 and 0.911.
In the same order, the values of AGCGTA are 0.931, 0.897, 0.814, 0.884 and 0.884.
On the same counts, the results for GGTGAA are 0.762, 0.721, 0.729, 0.774 and 0.807.
Regarding CATAGG, the binding signal with ELK1 amounted to 0.736; in the experiment with ELK3 it was 0.723; in the experiment with SPIC, 0.804; with ETS2 it was 0.769; in the experiment with ETV3, 0.774.
In the same order, the values of CGGTCG are 0.4, 0.382, 0.429, 0.401 and 0.425.
In the same order, the values of GGAGCG are 0.396, 0.401, 0.37, 0.366 and 0.38.
On the same counts, the results for CGGGAC are 0.598, 0.569, 0.49, 0.53 and 0.547.
Consider GAGGTG, for which the binding signal with ELK1 stood at 0.514; in the experiment with ELK3, 0.495; with SPIC, 0.563; in the experiment with ETS2, 0.503; with ETV3, 0.498.
In the same order, the values of CGGTCC are 0.944, 1.03, 0.984, 0.952 and 0.892.
For the sequence AGAGTA, the binding signal with ELK1 worked out at 0.786; in the experiment with ELK3, 0.772; with SPIC, 0.756; in the experiment with ETS2, 0.788; with ETV3, 0.801.
As to CAGGAC, the binding signal with ELK1 was 0.778; with ELK3 it was 0.771; in the experiment with SPIC, 0.638; with ETS2 it was 0.82; with ETV3, 0.818.
With ATCGTA, the binding signal with ELK1 came to 0.84; with ELK3, 0.775; in the experiment with SPIC it was 0.861; with ETS2 it was 0.841; in the experiment with ETV3, 0.871.
